These are yes or no findings as the source states them, for the method shown. In cells and extracts the contact can be indirect. Some entries that bind do so weakly or less than the wild type.

Amino acid sequences for entries named in this document (tags omitted).
UniProt Q15154: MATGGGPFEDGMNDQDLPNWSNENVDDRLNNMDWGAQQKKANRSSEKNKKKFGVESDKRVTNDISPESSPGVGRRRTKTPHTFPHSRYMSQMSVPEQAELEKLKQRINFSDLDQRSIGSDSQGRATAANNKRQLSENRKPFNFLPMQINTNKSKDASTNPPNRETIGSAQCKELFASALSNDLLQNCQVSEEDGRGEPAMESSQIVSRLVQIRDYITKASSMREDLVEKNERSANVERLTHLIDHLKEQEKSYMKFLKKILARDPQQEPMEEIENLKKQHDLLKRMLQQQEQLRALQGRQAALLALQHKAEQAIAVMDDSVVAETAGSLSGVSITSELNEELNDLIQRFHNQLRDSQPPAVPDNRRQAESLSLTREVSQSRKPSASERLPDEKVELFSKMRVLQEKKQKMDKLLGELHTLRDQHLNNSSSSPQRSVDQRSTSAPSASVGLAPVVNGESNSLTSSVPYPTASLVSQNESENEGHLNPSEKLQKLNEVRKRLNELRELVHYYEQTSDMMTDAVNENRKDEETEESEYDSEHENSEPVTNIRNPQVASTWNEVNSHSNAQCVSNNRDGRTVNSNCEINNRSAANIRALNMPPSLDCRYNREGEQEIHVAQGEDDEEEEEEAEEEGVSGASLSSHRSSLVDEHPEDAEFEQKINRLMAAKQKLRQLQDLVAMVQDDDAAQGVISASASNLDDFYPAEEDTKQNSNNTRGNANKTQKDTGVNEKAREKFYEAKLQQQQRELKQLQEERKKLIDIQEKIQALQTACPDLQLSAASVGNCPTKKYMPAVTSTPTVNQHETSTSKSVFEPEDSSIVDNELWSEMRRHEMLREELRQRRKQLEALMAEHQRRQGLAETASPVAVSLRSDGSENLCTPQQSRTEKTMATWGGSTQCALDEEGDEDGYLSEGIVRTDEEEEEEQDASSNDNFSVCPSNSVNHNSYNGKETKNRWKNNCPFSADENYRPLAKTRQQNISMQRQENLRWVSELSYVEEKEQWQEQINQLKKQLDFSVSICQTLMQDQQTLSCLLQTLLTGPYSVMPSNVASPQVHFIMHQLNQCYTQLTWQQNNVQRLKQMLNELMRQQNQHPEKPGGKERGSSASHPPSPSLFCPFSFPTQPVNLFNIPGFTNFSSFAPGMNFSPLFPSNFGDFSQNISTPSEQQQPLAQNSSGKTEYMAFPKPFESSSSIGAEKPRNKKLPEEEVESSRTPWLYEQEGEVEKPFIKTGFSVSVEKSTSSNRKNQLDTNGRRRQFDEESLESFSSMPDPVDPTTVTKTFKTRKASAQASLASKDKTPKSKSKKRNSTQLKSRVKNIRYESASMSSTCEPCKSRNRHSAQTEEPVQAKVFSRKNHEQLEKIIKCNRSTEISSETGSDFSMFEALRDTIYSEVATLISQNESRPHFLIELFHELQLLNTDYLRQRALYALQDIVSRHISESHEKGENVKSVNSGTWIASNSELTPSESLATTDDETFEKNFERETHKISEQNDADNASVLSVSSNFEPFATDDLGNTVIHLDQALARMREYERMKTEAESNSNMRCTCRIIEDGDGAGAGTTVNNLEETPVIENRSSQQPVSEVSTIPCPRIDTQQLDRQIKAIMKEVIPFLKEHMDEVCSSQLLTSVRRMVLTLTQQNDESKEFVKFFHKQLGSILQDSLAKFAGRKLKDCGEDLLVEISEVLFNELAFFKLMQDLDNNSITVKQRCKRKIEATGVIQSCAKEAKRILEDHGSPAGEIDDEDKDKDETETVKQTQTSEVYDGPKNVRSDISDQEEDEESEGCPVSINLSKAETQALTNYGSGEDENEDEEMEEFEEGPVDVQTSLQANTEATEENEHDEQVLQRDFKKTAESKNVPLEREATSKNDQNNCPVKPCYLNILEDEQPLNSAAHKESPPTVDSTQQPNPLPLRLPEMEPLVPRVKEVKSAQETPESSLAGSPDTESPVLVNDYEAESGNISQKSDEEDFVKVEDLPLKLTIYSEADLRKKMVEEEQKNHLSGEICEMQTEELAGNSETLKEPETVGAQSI
UniProt Q5TZA2: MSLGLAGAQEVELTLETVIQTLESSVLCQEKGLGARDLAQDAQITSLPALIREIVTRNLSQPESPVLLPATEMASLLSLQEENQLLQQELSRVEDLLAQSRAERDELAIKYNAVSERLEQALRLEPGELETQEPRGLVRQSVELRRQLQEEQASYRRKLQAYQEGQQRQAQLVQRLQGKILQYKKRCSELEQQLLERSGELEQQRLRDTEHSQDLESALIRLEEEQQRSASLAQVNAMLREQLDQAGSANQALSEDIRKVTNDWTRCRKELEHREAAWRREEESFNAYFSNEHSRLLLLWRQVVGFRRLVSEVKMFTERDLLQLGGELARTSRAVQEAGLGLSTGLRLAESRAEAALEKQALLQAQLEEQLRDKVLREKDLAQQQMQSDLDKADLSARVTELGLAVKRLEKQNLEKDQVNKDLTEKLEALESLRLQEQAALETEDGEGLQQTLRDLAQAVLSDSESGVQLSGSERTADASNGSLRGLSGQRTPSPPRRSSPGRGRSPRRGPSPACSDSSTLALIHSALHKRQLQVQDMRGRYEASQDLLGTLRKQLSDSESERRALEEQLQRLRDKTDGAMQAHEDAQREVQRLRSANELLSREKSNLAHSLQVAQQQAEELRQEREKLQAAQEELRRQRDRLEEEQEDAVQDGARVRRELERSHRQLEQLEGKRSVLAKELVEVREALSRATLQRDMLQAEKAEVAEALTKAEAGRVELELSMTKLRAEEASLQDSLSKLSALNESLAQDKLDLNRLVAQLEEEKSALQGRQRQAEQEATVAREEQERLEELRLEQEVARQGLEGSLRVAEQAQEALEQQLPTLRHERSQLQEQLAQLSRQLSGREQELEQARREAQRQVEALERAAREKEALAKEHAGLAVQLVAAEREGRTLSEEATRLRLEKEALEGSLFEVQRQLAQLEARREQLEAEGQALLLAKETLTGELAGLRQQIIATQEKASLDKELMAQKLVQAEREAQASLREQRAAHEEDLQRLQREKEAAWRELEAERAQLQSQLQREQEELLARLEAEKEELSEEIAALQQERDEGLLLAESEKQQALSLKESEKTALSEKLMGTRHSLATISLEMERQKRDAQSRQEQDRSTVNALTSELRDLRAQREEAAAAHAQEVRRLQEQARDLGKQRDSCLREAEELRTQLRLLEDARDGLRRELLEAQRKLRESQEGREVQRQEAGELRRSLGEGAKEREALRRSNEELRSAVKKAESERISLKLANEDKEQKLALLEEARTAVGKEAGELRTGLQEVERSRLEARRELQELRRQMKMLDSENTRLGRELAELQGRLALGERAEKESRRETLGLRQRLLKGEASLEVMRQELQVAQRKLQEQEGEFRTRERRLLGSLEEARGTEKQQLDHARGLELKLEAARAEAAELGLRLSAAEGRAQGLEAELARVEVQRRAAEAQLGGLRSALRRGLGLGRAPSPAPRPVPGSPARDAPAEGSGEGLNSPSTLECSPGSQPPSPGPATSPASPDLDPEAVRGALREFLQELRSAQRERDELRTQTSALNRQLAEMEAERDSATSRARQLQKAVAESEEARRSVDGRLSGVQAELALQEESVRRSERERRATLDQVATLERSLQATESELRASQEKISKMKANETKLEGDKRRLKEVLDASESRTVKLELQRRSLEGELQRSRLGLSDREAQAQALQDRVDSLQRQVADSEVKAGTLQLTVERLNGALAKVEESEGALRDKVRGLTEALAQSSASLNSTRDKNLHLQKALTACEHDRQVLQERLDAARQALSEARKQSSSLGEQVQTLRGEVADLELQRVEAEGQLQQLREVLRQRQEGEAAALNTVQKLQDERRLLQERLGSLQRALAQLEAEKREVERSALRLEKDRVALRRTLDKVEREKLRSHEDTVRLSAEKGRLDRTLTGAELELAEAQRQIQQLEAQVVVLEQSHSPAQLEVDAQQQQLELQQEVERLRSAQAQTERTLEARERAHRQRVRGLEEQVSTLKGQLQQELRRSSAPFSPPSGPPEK

In test [1] the target is PCM1 (endogenous, RPE1) (human (endogenous in RPE1)) (UniProt Q15154). As to the kind of experiment: co-IP; reciprocal: the same RPE1 lysates immunoprecipitated with the PCM1 antibody (Protein A Sepharose), blots for PCM1, CROCC and FLAG; rabbit IgG as negative control.
Test [2] has as its target FLAG-CROCC^FL (UniProt Q5TZA2). As to the kind of experiment: co-IP; lysates of RPE1 cells expressing FLAG-CROCC proteins, FLAG-M2 affinity gel 90 min at 4°C, blots for endogenous proteins; lysis buffer 50 mM Tris-HCl pH 8.0, 5 mM EDTA, 150 mM NaCl, 0.5% Triton X-100; also in CEP131-depleted cells and after 20 μM nocodazole for 2 h.

“FLAG-CROCC^FL (from UniProt Q5TZA2 1-2017)”: the binding result in test [1] is “binds”.
Consider “PCM1 (endogenous, RPE1) (from UniProt Q15154 1-2024)”, for which, in test [2], the binding result is on record as “binds”.
